Source: PubChem BioAssay AID1259425 (University of Nebraska Medical Center, 2018)
Aim: 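Compare each knockdown with KSR1 silencing using changes in marker transcripts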 (primary screen). Cell system: HCT116 human colon cancer cells. Reagent: siRNA pool against human genes, 50 nM siRNA. Detection: 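After 50 nM siRNA pool, branched-DNA assay measures six marker transcripts per well, minus blank, normalised to the geometric mean of two housekeeping transcripts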. Scale: BNIP3L mRNA: higher = more BNIP3L transcript after knockdown.
Here is an unselected part of about 14,000 deposited reagents. Not all columns of the deposit are shown. Not given: the time to read-out.

| gene | PubChem SID | BNIP3L mRNA, set 1 |
| --- | --- | --- |
| GSDMC | SID364003602 | 0.177 |
| KCNK5 | SID363994807 | 0.112 |
| IAPP | SID363991746 | 0.121 |
| ZNF839 | SID364000985 | 0.19 |
| JCHAIN | SID364004622 | 0.199 |
| PDZD7 | SID364003143 | 0.183 |
| IQSEC1 | SID363999157 | 0.163 |
| CPA5 | SID364004481 | 0.0679 |
| KLHDC4 | SID364000363 | 0.0762 |
| SLC15A2 | SID364001998 | 0.0944 |
| EXOSC1 | SID363999822 | 0.318 |
| LRRC4 | SID364002369 | 0.114 |
| BCAS1 | SID363994732 | 0.146 |
| MYRF | SID363998402 | 0.163 |
| ESRP1 | SID364000452 | 0.101 |
| AOC3 | SID363994801 | 0.188 |
| RPE | SID363997670 | 0.0735 |
| CLPS | SID363993047 | 0.0759 |
| FGFR1 | SID363991922 | 0.26 |
| HOXB13 | SID363997177 | 0.0745 |
| DNAH8 | SID363992644 | 0.0388 |
| HAUS4 | SID364000549 | 0.0558 |
| SMC5 | SID363999307 | 0.114 |
| UBE2V2 | SID363994464 | 0.0765 |
| PLA2G10 | SID363994643 | 0.0843 |
| ZFR | SID363999877 | 0.116 |
| AKAP13 | SID363997510 | 0.0544 |
| ADIRF | SID363997595 | 0.0821 |
| TRAP1 | SID364000013 | 0.162 |
| ZNF541 | SID364003850 | 0.145 |
| AP3D1 | SID363994993 | 0.115 |
| KLRC3 | SID363993460 | 0.168 |
| CCT3 | SID363996852 | 0.125 |
| NQO1 | SID363992188 | 0.121 |
| LEF1 | SID363999995 | 0.195 |
| SZRD1 | SID363999603 | 0.0633 |
| PDE8B | SID363994788 | 0.119 |
| TMEM156 | SID364003176 | 0.179 |
| ZBTB32 | SID363998805 | 0.0971 |
| PC | SID363992205 | 0.0917 |
| ZNF132 | SID363994535 | 0.214 |
| AZIN1 | SID363999689 | 0.0759 |
| PHF2 | SID363996302 | 0.069 |
| LSS | SID363993524 | 0.142 |
| DEXI | SID363998550 | 0.135 |
| NPTX1 | SID363993694 | 0.0512 |
| PCYT2 | SID363994017 | 0.15 |
| WDR73 | SID364004231 | 0.185 |
| FAHD1 | SID364003547 | 0.177 |
| ZNF652 | SID364005535 | 0.0524 |

In a second layout: results already given.
gene	PubChem SID	BNIP3L mRNA, set 1
ZNF541	SID364003850	0.145
AP3D1	SID363994993	0.115
KLRC3	SID363993460	0.168
